Experimental data reported in patent US12213985B2, “Oral cannabinoid formulations” (Jazz Pharmaceuticals Research UK Limited, priority 2016, dated 2025).

Assay: Taste of alternative sweetener formulations
Conditions: sweetener batches of Table 2

| Structure (SMILES) | taste of formulation made with the sweetener |
| --- | --- |
| COC(=O)[C@H](Cc1ccccc1)NC(=O)[C@H](CC(=O)O)NCCC(C)(C)C [Neotame, N—[N-(3,3-dimethylbutyl)-L-α-aspartyl]-L-phenylalanine 1-methyl ester] | good taste profile, with no bitter after taste |
| O=C1NS(=O)(=O)c2ccccc21 [Saccharin] | unpleasant taste, and also had a lingering bitter after taste |
| COC(=O)[C@H](Cc1ccccc1)NC(=O)[C@H](CC(=O)O)NCCCc1ccc(OC)c(O)c1 [Advantame, N—[N-3-(3-hydroxy-4-methoxyphenyl)propyl-α-L-aspartyl]-L-phenylalanine 1-methyl ester] | good taste profile, with no bitter after taste |
| O.O.O=C1NS(=O)(=O)c2ccccc21 [Saccharin Dihydrate] | unpleasant taste, and also had a lingering bitter after taste |
